From patent US20200129570A1, “Specific Bacterial Species and Metabolite That Improves Immune Checkpoint Inhibitor Therapy Efficacy” (BOARD OF REGENTS, THE UNIVERSITY OF TEXAS SYSTEM, priority 2017, published 2020)

Test: Non-targeted UHPLC/MS metabolomics of fecal samples (Metabolon), responders vs progressive disease
Parameters: species or system human

| SMILES | fecal metabolite level in responders vs non-responders (P responders) | fecal metabolite level in responders (ICT responders) | fecal metabolite level in responders vs non-responders (IN responders) |
| --- | --- | --- | --- |
| N=C(N)NCCC[C@H](N)C(=O)O [arginine] | increased levels | – | – |
| CCCCCCCCCCCCCCCc1cccc(O)c1C(=O)O [anacardic acid] | – | high levels | increased levels |
